For 1 compound, IC50 results are on record in ChEMBL document CHEMBL4007422 (J Med Chem, 2017).

By UniProt entry, the sequences of proteins in these tests, tags left out.
UniProt P10635, whole entry: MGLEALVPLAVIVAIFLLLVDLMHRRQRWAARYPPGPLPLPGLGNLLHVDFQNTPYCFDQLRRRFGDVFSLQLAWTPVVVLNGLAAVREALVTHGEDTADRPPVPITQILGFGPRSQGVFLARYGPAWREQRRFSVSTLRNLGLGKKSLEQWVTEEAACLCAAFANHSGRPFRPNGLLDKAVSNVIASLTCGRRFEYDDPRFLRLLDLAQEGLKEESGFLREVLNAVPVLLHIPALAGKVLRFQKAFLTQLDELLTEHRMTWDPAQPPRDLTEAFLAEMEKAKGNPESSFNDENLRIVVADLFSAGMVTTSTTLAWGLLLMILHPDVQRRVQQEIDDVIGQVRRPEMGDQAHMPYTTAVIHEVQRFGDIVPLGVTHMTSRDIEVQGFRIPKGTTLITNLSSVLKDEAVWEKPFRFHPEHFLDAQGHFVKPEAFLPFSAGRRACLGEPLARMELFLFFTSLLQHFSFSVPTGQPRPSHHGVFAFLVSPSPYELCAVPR

SMILES strings stand for the structures.

In this assay the target is Cytochrome P450 2D6 (Homo sapiens, UniProt P10635). As to the kind of experiment: Inhibition of CYP2D6 in human liver microsomes in presence of NADPH by LC-MS/MS analysis.

As usually defined, the IC50 is the concentration needed to halve the response being measured. With `CN1CCN(Cc2cn(S(=O)(=O)c3ccc(F)cc3)c3ccccc23)CC1`, the half-maximal inhibitory concentration (IC50) was 8.8 µM.
